Measured values taken from PMC10904832.
Results are given in words; binding and its absence hold for the method and conditions named. In cells and extracts the contact can be indirect. Some binding calls cover weakened binding; strength is not graded here.

By UniProt entry, the sequences of proteins in these tests, tags left out.
UniProt Q14643: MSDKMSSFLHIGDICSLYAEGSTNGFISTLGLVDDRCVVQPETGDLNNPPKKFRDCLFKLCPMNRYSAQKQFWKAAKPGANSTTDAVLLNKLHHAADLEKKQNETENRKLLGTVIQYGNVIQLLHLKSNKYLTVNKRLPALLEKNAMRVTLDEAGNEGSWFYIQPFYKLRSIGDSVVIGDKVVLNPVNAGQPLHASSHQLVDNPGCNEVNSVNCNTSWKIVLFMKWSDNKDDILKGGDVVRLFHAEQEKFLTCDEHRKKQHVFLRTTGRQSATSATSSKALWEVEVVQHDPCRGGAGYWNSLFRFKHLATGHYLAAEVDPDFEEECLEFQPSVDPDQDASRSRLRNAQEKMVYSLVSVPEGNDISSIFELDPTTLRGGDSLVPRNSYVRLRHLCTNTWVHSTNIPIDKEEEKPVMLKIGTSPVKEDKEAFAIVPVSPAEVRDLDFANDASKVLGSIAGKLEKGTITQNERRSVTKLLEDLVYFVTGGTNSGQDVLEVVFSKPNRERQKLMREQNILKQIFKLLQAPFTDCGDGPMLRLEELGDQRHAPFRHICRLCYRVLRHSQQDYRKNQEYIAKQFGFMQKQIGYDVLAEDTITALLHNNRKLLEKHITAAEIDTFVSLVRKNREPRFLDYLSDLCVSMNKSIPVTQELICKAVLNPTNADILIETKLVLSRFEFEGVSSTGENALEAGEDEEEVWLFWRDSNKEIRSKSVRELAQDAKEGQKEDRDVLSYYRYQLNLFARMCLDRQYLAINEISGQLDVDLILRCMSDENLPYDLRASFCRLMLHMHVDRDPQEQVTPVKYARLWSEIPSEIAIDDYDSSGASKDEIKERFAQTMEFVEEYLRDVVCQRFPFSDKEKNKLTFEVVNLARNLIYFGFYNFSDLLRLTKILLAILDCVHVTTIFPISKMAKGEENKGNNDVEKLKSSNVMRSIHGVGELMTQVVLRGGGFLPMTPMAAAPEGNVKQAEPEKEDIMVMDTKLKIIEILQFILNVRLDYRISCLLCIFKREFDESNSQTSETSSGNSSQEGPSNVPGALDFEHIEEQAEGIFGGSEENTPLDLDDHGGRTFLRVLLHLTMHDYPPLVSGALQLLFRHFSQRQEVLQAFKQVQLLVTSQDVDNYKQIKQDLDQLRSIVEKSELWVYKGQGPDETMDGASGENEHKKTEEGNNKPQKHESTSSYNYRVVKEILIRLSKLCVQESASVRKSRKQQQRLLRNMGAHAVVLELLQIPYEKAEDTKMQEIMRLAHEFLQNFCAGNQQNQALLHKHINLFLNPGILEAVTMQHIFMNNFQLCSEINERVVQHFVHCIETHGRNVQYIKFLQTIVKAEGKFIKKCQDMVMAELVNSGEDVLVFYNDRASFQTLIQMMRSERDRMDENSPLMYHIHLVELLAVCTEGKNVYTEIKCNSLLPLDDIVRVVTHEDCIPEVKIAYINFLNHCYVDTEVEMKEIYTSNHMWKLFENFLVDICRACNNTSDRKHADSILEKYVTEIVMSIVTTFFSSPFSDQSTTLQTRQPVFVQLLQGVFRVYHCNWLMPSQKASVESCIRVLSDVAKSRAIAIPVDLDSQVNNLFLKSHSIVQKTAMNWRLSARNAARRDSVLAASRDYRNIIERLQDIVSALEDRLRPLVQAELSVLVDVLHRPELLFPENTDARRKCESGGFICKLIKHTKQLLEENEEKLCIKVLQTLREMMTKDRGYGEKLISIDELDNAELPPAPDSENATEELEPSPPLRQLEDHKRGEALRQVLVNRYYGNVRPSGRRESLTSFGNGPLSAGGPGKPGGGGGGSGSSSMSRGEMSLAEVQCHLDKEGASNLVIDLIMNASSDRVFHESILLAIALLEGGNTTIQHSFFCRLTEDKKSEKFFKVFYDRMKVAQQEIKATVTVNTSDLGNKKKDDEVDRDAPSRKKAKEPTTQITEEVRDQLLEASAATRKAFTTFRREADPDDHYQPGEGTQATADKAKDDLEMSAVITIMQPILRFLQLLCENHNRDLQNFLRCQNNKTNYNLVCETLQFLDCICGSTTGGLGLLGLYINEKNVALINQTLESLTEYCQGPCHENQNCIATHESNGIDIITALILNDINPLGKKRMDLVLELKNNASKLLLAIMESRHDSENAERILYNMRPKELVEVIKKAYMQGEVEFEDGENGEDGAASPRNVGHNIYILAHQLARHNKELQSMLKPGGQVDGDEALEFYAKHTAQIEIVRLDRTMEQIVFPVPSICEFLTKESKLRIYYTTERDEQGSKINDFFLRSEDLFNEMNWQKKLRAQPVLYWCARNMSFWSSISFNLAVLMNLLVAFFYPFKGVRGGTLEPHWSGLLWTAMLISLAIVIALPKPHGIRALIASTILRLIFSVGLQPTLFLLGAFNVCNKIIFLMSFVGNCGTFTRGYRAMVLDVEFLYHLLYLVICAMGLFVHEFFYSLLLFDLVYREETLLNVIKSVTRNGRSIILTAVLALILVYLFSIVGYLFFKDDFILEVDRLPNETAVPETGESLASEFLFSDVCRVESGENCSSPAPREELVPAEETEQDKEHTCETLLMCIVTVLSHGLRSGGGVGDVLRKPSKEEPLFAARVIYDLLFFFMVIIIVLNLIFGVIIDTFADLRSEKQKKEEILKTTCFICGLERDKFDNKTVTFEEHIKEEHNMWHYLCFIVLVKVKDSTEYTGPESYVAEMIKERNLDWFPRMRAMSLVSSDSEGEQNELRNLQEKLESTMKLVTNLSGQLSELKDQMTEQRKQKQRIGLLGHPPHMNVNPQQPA
UniProt P21796: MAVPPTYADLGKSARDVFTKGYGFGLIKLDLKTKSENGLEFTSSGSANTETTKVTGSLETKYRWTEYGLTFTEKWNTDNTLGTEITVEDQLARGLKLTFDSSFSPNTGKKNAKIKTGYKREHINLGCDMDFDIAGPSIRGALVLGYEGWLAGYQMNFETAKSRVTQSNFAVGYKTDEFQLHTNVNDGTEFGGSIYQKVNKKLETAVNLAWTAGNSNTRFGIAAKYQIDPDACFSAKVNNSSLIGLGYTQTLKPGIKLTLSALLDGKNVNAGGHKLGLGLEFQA

Target: inositol 1,4,5-triphosphate receptor (IP3R1) (human (endogenous in HeLa)) (UniProt Q14643)
Assay: proximity ligation; Duolink in situ PLA in fixed (4% paraformaldehyde), permeabilised (0.2% Triton X-100) HeLa cells, with and without CCCP for 3 h; endogenous proteins detected with pairs of primary antibodies; PLA dots per cell counted

- binding: binds
Substance: VDAC1 (from UniProt P21796 1-283)
